Measurements as given in PubChem BioAssay AID248 (DTP/NCI, 2004).
The list is a part of this screen's results and no random one: it gathers tests that were run many times, whatever their T/C, doses with no T/C, and many T/C values between a quarter and a half above the control. Further doses and runs are listed elsewhere. T/C: endpoint of the treated group in % of that of the vehicle group. Some doses have a count of surviving animals in place of a T/C: the source holds a T/C of zero for them, seemingly a mark for toxic or unscored doses. Some doses without a T/C left all or most animals alive at the check, yet need not have been tolerated: the source hardly ever lists a survival T/C far under the control, and the zero likely stands for such cases as well. Survivors were counted at the toxicity check, usually on the fifth day, unless a day is given; later deaths do not show. Schedules are NCI's codes, taken here to give the interval after Q, in days (D) or hours (H), and the number of doses after X.

Tested on: L1210 leukemia ip in BDF1 mice, survival T/C
Experiment: NCI In Vivo Anticancer Drug Screen. Data for tumor model L1210 Leukemia (intraperitoneal) in B6D2F1 (BDF1) mice
Settings: T/C endpoint: mean survival time, higher T/C = longer survival
[1] = dose: 400.0 mg/kg/injection, schedule: Q04DX003 (ip), vehicle: saline with Tween-80
[2] = dose: 200.0 mg/kg/injection, schedule: Q04DX003 (ip), vehicle: saline with Tween-80
[3] = dose: 400.0 mg/kg/injection, schedule: Q01DX001 (ip), vehicle: saline
[4] = dose: 400.0 mg/kg/injection, schedule: Q01DX009 (ip), vehicle: saline
[5] = dose: 100.0 mg/kg/injection, schedule: Q04DX003 (ip), vehicle: saline with Tween-80

SMILES: CCCCCCCCCCCCN1CC1
- survivor count (dose: 40.0 mg/kg/injection, schedule: Q01DX009 (ip), vehicle: Klucel (hydroxypropylcellulose) (HPC)): 2 of 6
- survivor count (dose: 100.0 mg/kg/injection, schedule: Q01DX009 (ip), vehicle: Klucel (hydroxypropylcellulose) (HPC)): 0 of 6
- survivor count (dose: 200.0 mg/kg/injection, schedule: Q01DX009 (ip), vehicle: Klucel (hydroxypropylcellulose) (HPC)): 0 of 6
- survivor count (dose: 400.0 mg/kg/injection, schedule: Q01DX009 (ip), vehicle: Klucel (hydroxypropylcellulose) (HPC)): 0 of 6

SMILES: CC(=O)Oc1ccc(Cl)cc1Cl
- survivor count [1]: 2 of 6

SMILES: Cc1cc(-c2ccc(NS(=O)(=O)c3ccccc3)c(C)c2)ccc1NS(=O)(=O)c1ccccc1
- survivor count (dose: 400.0 mg/kg/injection, schedule: Q01DX001 (ip), vehicle: saline with Tween-80): 6 of 6

SMILES: O=S1(=O)CC2(N3CCOCC3)CCCCC21 (configuration not stated)
- survivor count (dose: 400.0 mg/kg/injection, schedule: Q01DX001 (ip), vehicle: carboxymethylcellulose (CMC)): 1 of 4

SMILES: O=C(SCc1ccccc1)c1cccnc1
- survivor count [2]: 3 of 6
- survivor count [1]: 0 of 6

SMILES: CC1(C)N=C(N)N=C(N)N1c1ccc(C#N)cc1
- survivor count (dose: 200.0 mg/kg/injection, schedule: Q01DX001 (ip), vehicle: saline): 0 of 6
- survivor count [3]: 0 of 6

SMILES: C[N+](C)(C)CCN=C(N)N[N+](=O)[O-]
- survivor count [4]: 5 of 6

SMILES: CC(=O)OCCSC#N
- survivor count (dose: 50.0 mg/kg/injection, schedule: Q04DX003 (ip), vehicle: saline with Tween-80): 0 of 6
- survivor count [5]: 0 of 6
- survivor count [2]: 0 of 6
- survivor count [1]: 0 of 6

SMILES: Nc1cccc(-c2ccccc2)c1
- survivor count (dose: 400.0 mg/kg/injection, schedule: Q01DX001 (ip), vehicle: Klucel (hydroxypropylcellulose) (HPC)): 0 of 6

SMILES: CC1(C)CCCC2(C)C1CC(O)C1(CO1)C2CCC(C)(O)C1CO1 (configuration not stated)
- survivor count (dose: 100.0 mg/kg/injection, schedule: Q01DX009 (ip), vehicle: DMSO): 4 of 6
- survivor count (dose: 200.0 mg/kg/injection, schedule: Q04DX003 (ip), vehicle: DMSO): 5 of 6
- survivor count (dose: 400.0 mg/kg/injection, schedule: Q04DX003 (ip), vehicle: DMSO): 2 of 6

SMILES: O=C(CC(=O)C(F)(F)C(F)(F)C(F)(F)F)c1csc2ccccc12
- survivor count (dose: 64.0 mg/kg/injection, schedule: Q01DX015 (ip), vehicle: saline): 6 of 6
- survivor count (dose: 75.0 mg/kg/injection, schedule: Q01DX009 (ip), vehicle: saline with Tween-80): 2 of 6
- survivor count (dose: 100.0 mg/kg/injection, schedule: Q04DX003 (ip), vehicle: acetone): 1 of 6
- survivor count (dose: 115.0 mg/kg/injection, schedule: Q01DX009 (ip), vehicle: saline with Tween-80): 2 of 6
- survivor count (dose: 170.0 mg/kg/injection, schedule: Q01DX009 (ip), vehicle: saline with Tween-80): 0 of 6
- survivor count (dose: 200.0 mg/kg/injection, schedule: Q04DX003 (ip), vehicle: acetone): 1 of 6
- survivor count [3]: 2 of 6

SMILES: O=C(O)c1ccccc1[N+](=O)[O-].[Ag]
- survivor count [5]: 5 of 6
- survivor count [2]: 2 of 6
- survivor count [1]: 0 of 6

SMILES: CCCOc1ccc(Nc2c3ccccc3nc3ccccc23)cc1
- survivor count (dose: 400.0 mg/kg/injection, schedule: Q04DX003 (ip), vehicle: Klucel (hydroxypropylcellulose) (HPC)): 1 of 6

SMILES: COc1cccc(CCNC(=O)CC#N)c1OC
- survivor count [4]: 5 of 6
